Results published in PubChem BioAssay AID540256 (National Center for Advancing Translational Sciences (NCATS), 2011).
About 3,700 (1.2%) of roughly 300,000 compounds were called active. Inconclusive means that the source gave no clear call. Such entries were picked first, then a sample of the others. The call rests on the fitted dose curve; tested in HEK293 cells. Potencies beside an inconclusive call are fits to weak or partial responses and may not hold up.

assay: qHTS for Inhibitors of binding or entry into cells for Lassa Virus; conditions: Lassa virus pseudotype entry inhibition, cell reporter; series mostly up to 37.9 µM; further: nearly all actives have a fitted effect of over 50% in size
Potency means the concentration at half of the fitted maximal effect.

Compound	Potency
CCOc1ccccc1NC(=O)COC(=O)c1c[nH]c2ccccc12	inconclusive: 3.55 µM [inhibitor, single point]
Cc1cc(N2CCOCC2)ccc1/C=C1\NC(=O)N(Cc2ccccc2F)C1=O	inconclusive: 1.3 µM [inhibitor, full curve, poor fit]
O=C(C1CCC(Cn2c(=O)[nH]c3ccccc3c2=O)CC1)N1CCN(c2ccccc2)CC1 (configuration not stated)	inactive
Cc1ccc(O)c(C(=O)CC(=O)c2ccccc2Cl)c1	inconclusive: 35.5 µM [inhibitor, single point]
Cn1cc(CN2CCN(Cc3cccnc3)CC2)c(-c2ccc3c(c2)OCCO3)n1	inconclusive: 35.5 µM [activator, single point]
Cc1ccc(/C=N/N=C/c2ccc(C)cc2)cc1	inactive
COc1ccc(N2C(=O)/C(=C/c3cccs3)NC2=S)cc1	inactive
CC(C)CN(CC(C)C)C(=O)Cc1coc2ccc3ccccc3c12	inconclusive: 29.1 µM [inhibitor, single point]
CCNS(=O)(=O)c1ccc(CCC(=O)NC2CCCC2)cc1	inconclusive: 2.91 µM [inhibitor, partial curve, poor fit]
COCCCNC(=O)c1c(N)n(/N=C/c2cccnc2)c2nc3ccccc3nc12	inactive
Fc1ccc(CSc2ccc(-c3ccco3)nn2)cc1	inactive
CCCC1=C(C(=O)OCC)C(c2ccc(NC(C)=O)cc2)NC(=O)N1 (configuration not stated)	inconclusive: 3.66 µM [inhibitor, single point]
Cc1ccc(CNC(=O)c2cc3c(=O)n4ccccc4nc3n(CC3CCCO3)c2=N)cc1 (configuration not stated)	inconclusive: 25.9 µM [inhibitor, single point]
Nc1cnccc1C(=O)O	inactive
Cc1cc(NC(c2cccnc2)c2ccc3cccnc3c2O)no1 (configuration not stated)	inconclusive: 3.55 µM [inhibitor, full curve, poor fit]
CCOc1ccc(CN2C(=O)c3ccccc3Sc3ccc(C(=O)NCc4ccc(C)cc4)cc32)cc1	inconclusive: 7.94 µM [inhibitor, partial curve, poor fit]
COc1ccc(CCNC(=O)C(C)Sc2ccccc2)cc1OC (configuration not stated)	inconclusive: 1.78 µM [inhibitor, full curve, poor fit]
O=C(CSc1nc2ccccc2o1)N1c2ccccc2Sc2ccccc21	inconclusive: 0.1 µM [activator, full curve, poor fit]
Cc1nc2nc(SCC(=O)NC(C)c3ccccc3)nn2c(C)c1Cc1c(F)cccc1Cl (configuration not stated)	inconclusive: 3.16 µM [inhibitor, full curve]
CCN(CC)c1nc2ccccc2c(N)c1-c1ccccc1	inconclusive: 20 µM [inhibitor, single point]
COc1cccc(NC(=O)COc2ccccc2C(N)=O)c1	inactive
CCn1nc(NS(=O)(=O)c2ccccc2)c2cc3ccccc3nc21	inconclusive: 22.4 µM [activator, single point]
CCC(C)NC(=O)CC(c1ccccc1)c1cc(C)ccc1O (configuration not stated)	inconclusive: 20 µM [activator, partial curve, poor fit]
COc1ccc(Br)cc1CN(C)CC(=O)Nc1cccc(S(=O)(=O)N2CCCC2)c1	inconclusive: 20 µM [inhibitor, single point]

Compound	Potency
CN(c1ccc(Cl)cc1)c1cc(=O)n(C)c2ccccc12	inconclusive: 12.6 µM [inhibitor, single point]
Cc1cc2ccc3ccccc3c2cc1CN(C)C	inactive
CCN1CCN(C(=S)NC(=O)c2cc(OC)c(OC)c(OC)c2)CC1	inconclusive: 1.26 µM [inhibitor, single point]
Cc1nn2c(-c3cccc(NC(=O)CSc4nc5ccccc5o4)c3)nnc2c2ccccc12	inconclusive: 35.5 µM [inhibitor, single point]
COc1ccccc1C(=O)COC(=O)c1c(-c2ccccc2)noc1C	inconclusive: 17.8 µM [inhibitor, partial curve, poor fit]
CCC(C(=O)NCCc1ccc(Cl)cc1)n1nc(C)c2c(C)n(-c3ccccc3)nc2c1=O (configuration not stated)	inactive
O=C(c1cnn2c(C(F)(F)F)cc(-c3ccccc3)nc12)N1CCC2(CC1)OCCO2	inactive
Cc1cc(C)c(NS(=O)(=O)c2ccccc2)c(C)c1	inactive
Cc1cc(NC(=O)CN(C)S(=O)(=O)c2ccc3c(c2)CCC(=O)N3)ccc1Br	inactive
Cc1ccc(-c2nn(-c3ccccc3)cc2C(=O)NCCCN2CCOCC2)cc1	inactive
CCOc1ccc(CCNC(=O)c2cc3c(-c4cccc(OC)c4)nn(C)c3s2)cc1OCC	inconclusive: 35.5 µM [inhibitor, single point]
CCCCC12CN3CC(C)(CN(C1)C3c1c(C)[nH]c(=O)[nH]c1=O)C2=O (configuration not stated)	inactive
Cc1noc(C)c1COc1cccc(C(=O)Nc2ccc(OCc3ccccc3)cc2)c1	inconclusive: 0.206 µM [inhibitor, full curve, poor fit]
Cc1cccc(CS(=O)(=O)Cc2ccc(C(=O)NCc3ccc(Cl)cc3)o2)c1	inactive
CC(CC(=O)OCC(=O)Nc1ccc2[nH]c(=O)[nH]c2c1)c1ccccc1 (configuration not stated)	inactive
COc1cccc2c(Nc3ccccc3C)cc(C)nc12	inconclusive: 35.5 µM [inhibitor, single point]
COc1ccc(-c2cccc(NS(=O)(=O)c3cc(C)c(Cl)cc3C)c2)nn1	inactive
CC1CCCN(S(=O)(=O)c2ccc(C(=O)Nc3nnc(C4CC4)o3)cc2)C1 (configuration not stated)	inconclusive: 10 µM [inhibitor, partial curve, poor fit]
Cc1cc(C(=O)C(=O)NC(C)C)c(C)n1-c1ccc([N+](=O)[O-])cc1	inactive
CC(=O)Nc1ccc(NC(=O)CN2C(=O)CN(C)C(=O)c3ccccc32)cc1	inactive
CC(C)Cc1nn2c(=O)cc(COC(=O)c3ccccc3NC(=O)c3ccccc3)nc2s1	inactive
C[N+]1(C)CC2=Cc3ccccc3CC2C1 (configuration not stated)	inactive
CN1CCN(C(=S)NC(=O)c2ccc(Cl)cc2)CC1	inconclusive: 15.8 µM [activator, single point]

2 entries drawn at random from the list so far:
Compound	Potency
COc1ccccc1C(=O)COC(=O)c1c(-c2ccccc2)noc1C	inconclusive: 17.8 µM [inhibitor, partial curve, poor fit]
Nc1cnccc1C(=O)O	inactive
